{"sequences": {"note": "The chains behind the UniProt entries cited, without tags or fusion partners. Where a name states a change or a piece, a line headed by the entry shows the natural chain unless it says otherwise.", "UniProt Q60793": "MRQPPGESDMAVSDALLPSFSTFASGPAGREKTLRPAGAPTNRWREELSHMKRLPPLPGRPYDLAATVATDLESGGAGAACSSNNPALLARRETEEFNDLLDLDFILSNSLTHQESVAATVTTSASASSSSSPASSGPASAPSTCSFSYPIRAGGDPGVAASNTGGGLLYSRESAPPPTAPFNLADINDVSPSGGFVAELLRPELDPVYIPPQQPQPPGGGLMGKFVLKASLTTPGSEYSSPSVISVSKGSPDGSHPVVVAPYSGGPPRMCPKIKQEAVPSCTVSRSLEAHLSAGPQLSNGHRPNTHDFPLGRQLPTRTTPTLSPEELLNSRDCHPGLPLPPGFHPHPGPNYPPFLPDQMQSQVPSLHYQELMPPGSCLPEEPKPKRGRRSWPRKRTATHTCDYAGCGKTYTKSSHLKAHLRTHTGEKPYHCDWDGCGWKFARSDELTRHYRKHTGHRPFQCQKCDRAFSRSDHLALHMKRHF"}, "source": "paper PMC5871780", "about": "“Klf4 glutamylation is required for cell reprogramming and early embryonic development in mice”", "biological_target": "GST-Klf4-K232R (Mus musculus) (UniProt Q60793)", "test": "EMSA", "conditions": "affinity comparable to wt; LightShift Chemiluminescent EMSA Kit (Thermo Scientific), per manufacturer; pH and temperature not stated; recombinant protein; protein details: GST (N-term, pGEX-6P-1)", "note": "The exact form of at least one protein or probe is not confirmed.", "data": [{"sequence": "GCCGCCTGGGTGCCTGGGAGAATAGGGGGTGGGTAGGGTAGGAGGCTTG (double strand) [Nanog promoter probe]", "values": [{"measurement": "binding result", "value": "binds"}]}]}
